Here are results for one molecule from PMC3382138, “On the Structure and Function of the Phytoene Desaturase CRTI from Pantoea ananatis, a Membrane-Peripheral and FAD-Dependent Oxidase/Isomerase” (PLoS ONE, 2012).

This test concerns the target Phytoene desaturase CRTI from Pantoea ananatis, C-terminal His6 fusion (Pantoea ananatis) (UniProt P21685). The test is described as follows: SEC; gel permeation chromatography on HiLoad 16/60 Superdex 200 PG in 50 mM Tris-HCl pH 8.0, 100 mM NaCl, 1 mM TCEP, 1 ml/min; no detergent; both purified. On the technique in general: SEC sorts molecules by how far they enter the pores of the column.

These are yes or no findings as the source states them, for the method shown. Sequences can lack the tags named with a protein.

B1: Phytoene desaturase CRTI from Pantoea ananatis, C-terminal His6 fusion (enzyme, UniProt P21685 1-492)
chain: MKPTTVIGAGFGGLALAIRLQAAGIPVLLLEQRDKPGGRAYVYEDQGFTFDAGPTVITDPSAIEELFALAGKQLKEYVELLPVTPFYRLCWESGKVFNYDNDQTRLEAQIQQFNPRDVEGYRQFLDYSRAVFKEGYLKLGTVPFLSFRDMLRAAPQLAKLQAWRSVYSKVASYIEDEHLRQAFSFHSLLVGGNPFATSSIYTLIHALEREWGVWFPRGGTGALVQGMIKLFQDLGGEVVLNARVSHMETTGNKIEAVHLEDGRRFLTQAVASNADVVHTYRDLLSQHPAAVKQSNKLQTKRMSNSLFVLYFGLNHHHDQLAHHTVCFGPRYRELIDEIFNHDGLAEDFSLYLHAPCVTDSSLAPEGCGSYYVLAPVPHLGTANLDWTVEGPKLRDRIFAYLEQHYMPGLRSQLVTHRMFTPFDFRDQLNAYHGSAFSVEPVLTQSAWFRPHNRDKTITNLYLVGAGTHPGAGIPGVIGSAKATAGLMLEDLI
For the molecule B1, the binding result is “no binding”.
